{
  "source": "paper PMC7819943",
  "about": "“Rice protein-binding microarrays: a tool to detect cis-acting elements near promoter regions in rice”",
  "note": "The list shows a part of the results.",
  "data": [
    {"biological_target": "T1, OsSMF1 (Oryza sativa, UniProt Q6ZLB0 1-436)", "T1 sequence": "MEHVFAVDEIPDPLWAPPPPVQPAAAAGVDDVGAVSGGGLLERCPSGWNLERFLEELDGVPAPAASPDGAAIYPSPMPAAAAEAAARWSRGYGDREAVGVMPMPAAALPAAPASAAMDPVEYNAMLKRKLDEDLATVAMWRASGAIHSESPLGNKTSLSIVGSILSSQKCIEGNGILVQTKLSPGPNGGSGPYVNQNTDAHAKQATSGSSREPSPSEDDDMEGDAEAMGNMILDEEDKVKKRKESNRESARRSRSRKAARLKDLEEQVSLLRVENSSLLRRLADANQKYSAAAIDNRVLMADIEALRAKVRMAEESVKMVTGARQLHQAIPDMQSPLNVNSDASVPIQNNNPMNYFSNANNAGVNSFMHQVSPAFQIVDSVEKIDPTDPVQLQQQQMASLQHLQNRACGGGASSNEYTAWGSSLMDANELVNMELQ", "assay": "protein-binding microarray (RPBM); PBS, 2% BSA, 51.3 ng/ul salmon testes DNA, 50 uM zinc acetate, 200 nM TF, 25 C, 1 h; high values mean tight binding", "conditions": "protein: recombinant; tags: N-terminal polyhistidine and DsRed monomer fusion (pET32a); chain copies: 2; label: CyDye5-dUTP incorporated in the synthesized complementary strand; 3' TTTTT single-stranded linker to array surface; dsDNA, one strand shown", "outline": "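A custom Agilent array was converted to double-stranded form by primer extension with Cy5-dUTP and blocked with 2% BSA. Protein at 200 nM in PBS with 2% BSA, salmon testes DNA and 50 µM zinc acetate was applied for 1 h at 25 °C, followed by washing. The proteins were polyhistidine–DsRed N-terminal fusions of transcription factors, expressed in E. coli BL21-CodonPlus and Ni–NTA-purified. The binding signal is per-feature fluorescence intensity (arbitrary units) from an Axon 4000B scanner.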", "values": [
      {"sequence": "GAGGATGAACTGATGACGTGCAGCTTTGGATGGATGGAGTCGGAGTCACCTAGTGCAG", "binding signal": "13200 fluorescence intensity (a.u.)"},
      {"sequence": "TGGCTAGTTTGGTAAAGTTAGTACAAAATTTAAAATTATGCGGAGTCACCTAGTGCAG", "binding signal": "3650 fluorescence intensity (a.u.)"},
      {"sequence": "GCCCTCCTCCGCCGCCACCTCCCTCAAGGCCACCGCCGCACGGAGTCACCTAGTGCAG", "binding signal": "3220 fluorescence intensity (a.u.)"},
      {"sequence": "GCACCGGCTCCAGTCCACCGGCCACACGTCAGCGACGCCTCGGAGTCACCTAGTGCAG", "binding signal": "9880 fluorescence intensity (a.u.)"},
      {"sequence": "ATAGTGCCTTCCCTTTTACGTATCGTGCCACGTACACGTACGGAGTCACCTAGTGCAG", "binding signal": "8650 fluorescence intensity (a.u.)"},
      {"sequence": "TTATTTGACAAAGTACACCAGCTGACGCAATGGCTGTAGTCGGAGTCACCTAGTGCAG", "binding signal": "7340 fluorescence intensity (a.u.)"},
      {"sequence": "GCAGTTTGTCTCATGTGCTGCTGACTAGATATTGATCATACGGAGTCACCTAGTGCAG", "binding signal": "11400 fluorescence intensity (a.u.)"},
      {"sequence": "CGGTGGAGCGGGCTGCACGGCGACCAGAGCGGCGACGTAGCGGAGTCACCTAGTGCAG", "binding signal": "12300 fluorescence intensity (a.u.)"},
      {"sequence": "CAACGTGTTCAGCTACTCCCTCCACGCGGCAACCGACGCGCGGAGTCACCTAGTGCAG", "binding signal": "4240 fluorescence intensity (a.u.)"},
      {"sequence": "CCGGAAAATCTATCTGTGCTTATAAATAGCCATTATCCAACGGAGTCACCTAGTGCAG", "binding signal": "57400 fluorescence intensity (a.u.)"},
      {"sequence": "ATAATTATTCCAATGTGATATACATGCACACGTGTGAGTCCGGAGTCACCTAGTGCAG", "binding signal": "5440 fluorescence intensity (a.u.)"},
      {"sequence": "TCTAGAGATGAAAAGCTCAGTACATGTCACACTTGTTCTGCGGAGTCACCTAGTGCAG", "binding signal": "3700 fluorescence intensity (a.u.)"},
      {"sequence": "AATAGAGAAGAGGCTGACGTGGCTTCCTGACATGTGGGATCGGAGTCACCTAGTGCAG", "binding signal": "14600 fluorescence intensity (a.u.)"},
      {"sequence": "GTTCTGTTTAGGGGCCGGGGTGGCATAACAGAATAAGTTGCGGAGTCACCTAGTGCAG", "binding signal": "4470 fluorescence intensity (a.u.)"},
      {"sequence": "ACCTCACTCATCTATATGCATGATATAGCAGTTTGAGTATCGGAGTCACCTAGTGCAG", "binding signal": "3140 fluorescence intensity (a.u.)"},
      {"sequence": "CATTTTGTACTTTGACAAGTATTTAATATTTGCCAGTAGTCGGAGTCACCTAGTGCAG", "binding signal": "65100 fluorescence intensity (a.u.)"},
      {"sequence": "TATATAATTCTAATGTCATATAAGCGTCATGTGGGATGAACGGAGTCACCTAGTGCAG", "binding signal": "4520 fluorescence intensity (a.u.)"},
      {"sequence": "CAGCTGGCACCACCCATTCCTCGCGTCGCATCGCACTTGTCGGAGTCACCTAGTGCAG", "binding signal": "3170 fluorescence intensity (a.u.)"},
      {"sequence": "ACCATATCCTCTAGCAAGATATGCCATTAATCACCTAACACGGAGTCACCTAGTGCAG", "binding signal": "3230 fluorescence intensity (a.u.)"},
      {"sequence": "CTGAGCACGAACGGAGAGCGTGGCCGTCGTGGAAGTACTACGGAGTCACCTAGTGCAG", "binding signal": "5140 fluorescence intensity (a.u.)"},
      {"sequence": "GCCCCGGCGGTAAGCACGGTTACCGCACGGTAACCGCGGTCGGAGTCACCTAGTGCAG", "binding signal": "20400 fluorescence intensity (a.u.)"},
      {"sequence": "CGACGCTGATCTCAAATATTTCGACCACCATTGCCCGTATCGGAGTCACCTAGTGCAG", "binding signal": "3200 fluorescence intensity (a.u.)"},
      {"sequence": "CTAGGTCATCGATATGGGACGAGCCACGCACGCTAGAATACGGAGTCACCTAGTGCAG", "binding signal": "3800 fluorescence intensity (a.u.)"},
      {"sequence": "CATTTAAAGTGGATAACTGATGAGGTGTCCTGCCATAATACGGAGTCACCTAGTGCAG", "binding signal": "3980 fluorescence intensity (a.u.)"},
      {"sequence": "TTGGCGTGTGGATGTGTGCGTAACGGCTAATTTGGTTCGGCGGAGTCACCTAGTGCAG", "binding signal": "3350 fluorescence intensity (a.u.)"},
      {"sequence": "ACCATATATACTCCCTCTATTTCAAAATGTTTGACACCGTCGGAGTCACCTAGTGCAG", "binding signal": "3340 fluorescence intensity (a.u.)"},
      {"sequence": "CCTTTTGTCTCAGCCCACTAGATACGTCATCTTGGTGGCCCGGAGTCACCTAGTGCAG", "binding signal": "5200 fluorescence intensity (a.u.)"},
      {"sequence": "GTATATAGGTGGCCAACTCGTTCCTCTGTTAATAACCAATCGGAGTCACCTAGTGCAG", "binding signal": "3300 fluorescence intensity (a.u.)"},
      {"sequence": "GTTCTGTGAGAAATTTTGTTGTTAAATTTGTAGTTTTGTGCGGAGTCACCTAGTGCAG", "binding signal": "3510 fluorescence intensity (a.u.)"},
      {"sequence": "AAGTGACTCCCACCCTCGACCCTTCCGTCAGCGGGAAATTCGGAGTCACCTAGTGCAG", "binding signal": "3240 fluorescence intensity (a.u.)"},
      {"sequence": "TTGTGTTACAGAAAACATTCAAACCTTTATCATCAGAGGGCGGAGTCACCTAGTGCAG", "binding signal": "7190 fluorescence intensity (a.u.)"},
      {"sequence": "ATATTCTGATATGTCAATATTATTGTGTATGATTGATTGTCGGAGTCACCTAGTGCAG", "binding signal": "46700 fluorescence intensity (a.u.)"},
      {"sequence": "ACTCATCAGCAATACAAAATGACAGATAGGCACAGTTGTTCGGAGTCACCTAGTGCAG", "binding signal": "3470 fluorescence intensity (a.u.)"},
      {"sequence": "ACACCTAACCTTGACGCGCATACACGTACACGTACGGCGCCGGAGTCACCTAGTGCAG", "binding signal": "5440 fluorescence intensity (a.u.)"},
      {"sequence": "CGGCTGAGGGACGGGCGGGAGGAGGTGGTCGGGTACGGGGCGGAGTCACCTAGTGCAG", "binding signal": "4690 fluorescence intensity (a.u.)"},
      {"sequence": "CACAGTCGACGACACCCTCCATCTCCGTCCCTCCCACTCCCGGAGTCACCTAGTGCAG", "binding signal": "7160 fluorescence intensity (a.u.)"},
      {"sequence": "ATCCACAACGTACACGCACGTAGTACAAGTAGTACTCCATCGGAGTCACCTAGTGCAG", "binding signal": "3210 fluorescence intensity (a.u.)"},
      {"sequence": "CCACCTTTTATTTTGCTTCCAAGTACCACGTCACCGCCATCGGAGTCACCTAGTGCAG", "binding signal": "25000 fluorescence intensity (a.u.)"},
      {"sequence": "CACTGCTGTTCCGCCACGTGGCACCCACCCCAATCCGCAGCGGAGTCACCTAGTGCAG", "binding signal": "7640 fluorescence intensity (a.u.)"},
      {"sequence": "GCGCACCTCCTCCAGCACCTCGGGCACCGTGACGAGGCGGCGGAGTCACCTAGTGCAG", "binding signal": "4530 fluorescence intensity (a.u.)"},
      {"sequence": "CCACCACTACCGCAGTTGCTTGCTGGCTCATCAACACTGCCGGAGTCACCTAGTGCAG", "binding signal": "3450 fluorescence intensity (a.u.)"},
      {"sequence": "GATCCTGCATCCAACACGGCATCATAATCATCAGTCATTCCGGAGTCACCTAGTGCAG", "binding signal": "3850 fluorescence intensity (a.u.)"},
      {"sequence": "TAATGTCGTGCCGTATGAGCAATGGTGACTGGCGAGCCAACGGAGTCACCTAGTGCAG", "binding signal": "3900 fluorescence intensity (a.u.)"},
      {"sequence": "AAGCATGCCCTAGAAGATGGCCACCAGTCCTGGAGCCAGTCGGAGTCACCTAGTGCAG", "binding signal": "4860 fluorescence intensity (a.u.)"},
      {"sequence": "ATAGCTACCTACTATGCCGCGTAACTATTATGTGCACCGTCGGAGTCACCTAGTGCAG", "binding signal": "3180 fluorescence intensity (a.u.)"},
      {"sequence": "TGGCCCGGGCCACTACCCGCGCCGCCCCGTCGCCGACCTGCGGAGTCACCTAGTGCAG", "binding signal": "3340 fluorescence intensity (a.u.)"},
      {"sequence": "TTTTGGATCCAACGTCCCATATCAGCGCGCGTCCCACACCCGGAGTCACCTAGTGCAG", "binding signal": "4310 fluorescence intensity (a.u.)"},
      {"sequence": "GACCGCTCCACTCCCCTCTCCCTTCCCCTTTTCGGCATGTCGGAGTCACCTAGTGCAG", "binding signal": "3500 fluorescence intensity (a.u.)"},
      {"sequence": "ATAGCAGCTGTCATCTCCAAATCATTGGAAGCCGGCCTCACGGAGTCACCTAGTGCAG", "binding signal": "3840 fluorescence intensity (a.u.)"},
      {"sequence": "AGCATAAACAAGGTCAAGAATGACGTCAGACATACTCCAACGGAGTCACCTAGTGCAG", "binding signal": "19600 fluorescence intensity (a.u.)"},
      {"sequence": "GACAACGTCGATGACTGCCGTGACGATGATGGCGGCGACGCGGAGTCACCTAGTGCAG", "binding signal": "4860 fluorescence intensity (a.u.)"},
      {"sequence": "GCGGCTAGTTCTCCATCGAAAACGTTTTCTCGGCTACGTGCGGAGTCACCTAGTGCAG", "binding signal": "3180 fluorescence intensity (a.u.)"},
      {"sequence": "ACAGGGCTTGGAATAGGTTGGTGTACAGGGCGGTAGCTTACGGAGTCACCTAGTGCAG", "binding signal": "3850 fluorescence intensity (a.u.)"},
      {"sequence": "ACAGGCCCACCAGCCCATATAACATATGCCACGTCACCGACGGAGTCACCTAGTGCAG", "binding signal": "26800 fluorescence intensity (a.u.)"}
    ]}
  ]
}
